Experiment [1] concerns the target T1, SMC-5 (wild-type) (C. elegans) (UniProt Q18237).
T1 sequence: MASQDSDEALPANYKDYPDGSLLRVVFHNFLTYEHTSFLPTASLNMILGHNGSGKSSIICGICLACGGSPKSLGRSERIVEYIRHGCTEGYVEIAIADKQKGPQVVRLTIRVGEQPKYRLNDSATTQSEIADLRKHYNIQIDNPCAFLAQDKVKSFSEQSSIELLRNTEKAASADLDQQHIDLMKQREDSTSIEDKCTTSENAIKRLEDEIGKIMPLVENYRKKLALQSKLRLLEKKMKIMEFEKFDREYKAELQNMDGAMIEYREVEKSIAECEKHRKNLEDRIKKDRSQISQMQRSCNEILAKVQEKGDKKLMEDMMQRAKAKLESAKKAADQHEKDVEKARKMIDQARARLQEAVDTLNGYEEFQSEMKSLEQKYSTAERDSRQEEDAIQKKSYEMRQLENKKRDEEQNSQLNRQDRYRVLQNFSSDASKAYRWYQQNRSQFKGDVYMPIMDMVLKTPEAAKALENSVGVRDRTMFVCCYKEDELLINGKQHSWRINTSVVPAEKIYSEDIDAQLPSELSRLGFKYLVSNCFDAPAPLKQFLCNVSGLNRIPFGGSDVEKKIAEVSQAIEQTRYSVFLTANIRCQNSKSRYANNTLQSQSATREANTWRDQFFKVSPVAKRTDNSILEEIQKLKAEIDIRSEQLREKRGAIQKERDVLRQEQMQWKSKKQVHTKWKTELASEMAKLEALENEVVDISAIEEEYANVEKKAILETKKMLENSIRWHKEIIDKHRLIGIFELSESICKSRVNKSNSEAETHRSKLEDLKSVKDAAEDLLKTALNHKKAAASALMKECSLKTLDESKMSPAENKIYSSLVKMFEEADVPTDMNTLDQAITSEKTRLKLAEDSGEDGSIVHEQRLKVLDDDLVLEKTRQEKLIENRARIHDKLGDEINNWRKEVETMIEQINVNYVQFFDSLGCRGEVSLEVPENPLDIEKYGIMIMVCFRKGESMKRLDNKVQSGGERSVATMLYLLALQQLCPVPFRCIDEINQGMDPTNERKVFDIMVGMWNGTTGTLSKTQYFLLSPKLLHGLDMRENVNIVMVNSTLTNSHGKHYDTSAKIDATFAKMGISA
Briefly: two-hybrid; Y2HGold yeast; pGBKT7 bait and pGADT7 prey; both configurations (SMC-5 on Gal4 AD with NSE-4 on Gal4 BD, and the reciprocal); growth on SD-Trp-Leu-His + 3-AT, 2-3 days at 30 °C.

In experiment [2] the target is NSE-4 (Non-SMC Element 4) (C. elegans) (UniProt Q9XTV3). The description is as above.

Results are given in words; binding and its absence hold for the method and conditions named. Binding calls can cover weak binding; strength is not graded here.

With “NSE-4 (Non-SMC Element 4) (from UniProt Q9XTV3)”, the binding entry in experiment [1] is “binds”.

B1: SMC-5 (wild-type) (protein, UniProt Q18237 1-1076)
chain: T1 sequence
Take B1: the binding entry in experiment [2] is recorded as “binds”.

(Values after PMC12191127.)
